# Measured data: PubChem BioAssay AID1224830 (NIAID, 2016)
# Aim: 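Regulators of TLR4 signalling towards TNF-alpha in macrophage-like cells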 (primary screen)
# Cells: human THP-1 monocytic leukaemia cells, TNF dual-luciferase reporter clone, PMA-differentiated to macrophage-like cells
# Reagents: siRNA pool against human genes, 50 nM
# Duration: LPS for 4 h, given about 3 days after siRNA transfection
# Conditions: bacterial LPS (TLR4 ligand), 10 ng/ml
# Measurement: 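Ratio of firefly to renilla light, scaled to the plate median and expressed as a robust z-score per replicate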
# Reading the numbers: TNF reporter robust z-score: higher = stronger TNF reporter response to LPS
# Call rule: 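Each well counts as active if its z-score is over 2.8 or under -1.5; controls are left without a call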
# Here is one part, drawn at random, of about 18,000 deposited reagents. Of all reagents, about 2,900 (16%) were called active. 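Calls are made per well; low scores hint the gene aids the LPS response, high scores that it dampens it.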 Repeated entries: four replicate wells of each siRNA pool.
gene,TNF reporter robust z-score,Call
TCP10L3,-0.27,inactive
TCP10L3,-0.92,inactive
TCP10L3,-0.64,inactive
TCP10L3,0.5,inactive
DUSP7,-0.61,inactive
DUSP7,-0.73,inactive
DUSP7,-0.04,inactive
DUSP7,-0.7,inactive
RIPK4,0.16,inactive
RIPK4,0.04,inactive
RIPK4,-0.46,inactive
RIPK4,-0.01,inactive
DEFB105A,0.52,inactive
DEFB105A,-0.65,inactive
DEFB105A,-0.9,inactive
DEFB105A,-0.43,inactive
SARS1,0.36,inactive
SARS1,0.45,inactive
SARS1,0.47,inactive
SARS1,0.65,inactive
APCDD1,-1.02,inactive
APCDD1,-1.14,inactive
APCDD1,-1.11,inactive
APCDD1,-1.25,inactive
OR1F1,-0.04,inactive
OR1F1,0.32,inactive
OR1F1,0.49,inactive
OR1F1,-0.22,inactive
CCDC85A,1.35,inactive
CCDC85A,0.21,inactive
CCDC85A,0.48,inactive
CCDC85A,0.49,inactive
PTPRZ1,0.82,inactive
PTPRZ1,0.13,inactive
PTPRZ1,0.58,inactive
PTPRZ1,0.69,inactive
ANGPT2,0.63,inactive
ANGPT2,0.08,inactive
ANGPT2,0.23,inactive
ANGPT2,0.44,inactive
AOC1,-0.77,inactive
AOC1,-0.73,inactive
AOC1,-0.86,inactive
AOC1,-0.09,inactive
SSPOP,,inactive

7 successive reagents from above:
gene,TNF reporter robust z-score,Call
OR1F1,-0.22,inactive
CCDC85A,1.35,inactive
CCDC85A,0.21,inactive
CCDC85A,0.48,inactive
CCDC85A,0.49,inactive
PTPRZ1,0.82,inactive
PTPRZ1,0.13,inactive

Continued.
gene,TNF reporter robust z-score,Call
OR51E1,-0.2,inactive
OR51E1,2.28,inactive
OR51E1,1.65,inactive
OR51E1,0.43,inactive
PDZD9,-0.61,inactive
PDZD9,-0.48,inactive
PDZD9,0.09,inactive
PDZD9,-0.32,inactive
DMBT1,0.11,inactive
DMBT1,0.49,inactive
DMBT1,-1.09,inactive
DMBT1,-0.66,inactive
DLX4,-1.53,active
DLX4,-0.79,inactive
DLX4,-1.15,inactive
DLX4,-0.98,inactive
ACTL6A,0.52,inactive
ACTL6A,0.8,inactive
ACTL6A,-0.41,inactive
DENND2A,0.35,inactive
DENND2A,0.56,inactive
DENND2A,1.13,inactive
DENND2A,0.07,inactive
BCAS4,-0.04,inactive
BCAS4,-0.18,inactive
BCAS4,0.1,inactive
BCAS4,0.6,inactive
SS18,0.26,inactive
SS18,-0.35,inactive
SS18,-0.21,inactive
SS18,0.45,inactive
C17orf75,-0.63,inactive
C17orf75,-0.86,inactive
C17orf75,-0.13,inactive
SF3B3,2.39,inactive
SF3B3,1.23,inactive
SF3B3,2.21,inactive
SF3B3,0.52,inactive
ZNF74,0.52,inactive
ZNF74,0.17,inactive
ZNF74,-0.12,inactive
ZNF74,0.13,inactive
SLC6A13,-0.72,inactive
SLC6A13,-0.52,inactive
SLC6A13,-0.08,inactive
SLC6A13,0.05,inactive
GRN,0.71,inactive
GRN,0.44,inactive
GRN,-1.31,inactive
GRN,-1.72,active
C8G,0.48,inactive
C8G,1.82,inactive
C8G,1.75,inactive
C8G,2.43,inactive
PABPC1L2B,-0.01,inactive
PABPC1L2B,-0.99,inactive
PABPC1L2B,-0.25,inactive
KRT39,-0.25,inactive
KRT39,-0.79,inactive
KRT39,0.42,inactive
KRT39,-0.2,inactive
MIER2,-1.28,inactive
MIER2,-0.08,inactive
MIER2,-1.2,inactive
MIER2,-0.49,inactive
